Results deposited as PubChem BioAssay AID686938 (Drosophila RNAi Screening Center, 2013).

- Aim: 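Looking for CRAC channel components and the factors controlling them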 (primary screen)
- Cell system: Drosophila S2R+ cells
- Reagents: long dsRNA against Drosophila genes, about 0.25 µg dsRNA per well, roughly 10,000 cells
- Timing: 5 days of knock-down before the calcium assay
- Conditions: thapsigargin (SERCA pump blocker) to empty calcium stores; entry signal taken 4 min after adding it
- Measurement: 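Duplicate raw fluo-4 intensities per well from a plate reader, at rest and four minutes after thapsigargin emptied calcium stores; entry-to-rest ratio filled for only some wells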
- Direction: calcium entry signal: higher = stronger calcium signal after store depletion; resting calcium signal: higher = higher resting calcium signal
- Units: calcium entry signal in fluorescence units; resting calcium signal in fluorescence units
- Hit rule: 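Called when the plate z-score of the entry-to-rest ratio, mean of duplicates, falls below −3; wells with low overall dye signal (Fmax z below −2) or more than five off-targets excluded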
- Calls: active = strongly reduced calcium entry; inactive = no strong reduction
The deposit covers about 23,000 reagents; below is a random part of those with a known target gene and a result. Of all reagents, 75 (0.33%) are marked active. 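Raw plate signals without normalisation; calls rest on plate z-scores that were not deposited; ratio present for only 364 wells.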 The numbers tell different reagents against one gene apart. Names joined by + are all predicted targets of the reagent. No sequences are given here. The record does not give: the dose of the treatment.

CG10177: calcium entry signal, replicate 1 = 3.51e7; calcium entry signal, replicate 2 = 4.71e7; resting calcium signal, replicate 1 = 1.83e7; resting calcium signal, replicate 2 = 1.86e7; call = inactive
MFS1 (Major Facilitator Superfamily Transporter 1): calcium entry signal, replicate 1 = 3.95e7; calcium entry signal, replicate 2 = 4.31e7; resting calcium signal, replicate 1 = 2.02e7; resting calcium signal, replicate 2 = 1.93e7; call = inactive
CR40450 + CG32767: calcium entry signal, replicate 1 = 2.34e7; calcium entry signal, replicate 2 = 1.83e7; resting calcium signal, replicate 1 = 1.05e7; resting calcium signal, replicate 2 = 8.02e6; call = inactive
CG6006 #1: calcium entry signal, replicate 1 = 2.44e7; calcium entry signal, replicate 2 = 4.23e7; resting calcium signal, replicate 1 = 1.17e7; resting calcium signal, replicate 2 = 1.99e7; call = inactive
CG6006 #2: calcium entry signal, replicate 1 = 2.98e7; calcium entry signal, replicate 2 = 2.18e7; resting calcium signal, replicate 1 = 1.34e7; resting calcium signal, replicate 2 = 1.06e7; call = inactive
Sec6 (Secretory 6): calcium entry signal, replicate 1 = 4.21e7; calcium entry signal, replicate 2 = 4.21e7; resting calcium signal, replicate 1 = 2.08e7; resting calcium signal, replicate 2 = 1.90e7; call = inactive
rno (rhinoceros): calcium entry signal, replicate 1 = 3.76e7; calcium entry signal, replicate 2 = 5.01e7; resting calcium signal, replicate 1 = 1.86e7; resting calcium signal, replicate 2 = 2.39e7; call = inactive
CG30496: calcium entry signal, replicate 1 = 3.92e7; calcium entry signal, replicate 2 = 2.35e7; resting calcium signal, replicate 1 = 1.65e7; resting calcium signal, replicate 2 = 1.19e7; call = inactive
Reps (RALBP1 associated Eps domain containing): calcium entry signal, replicate 1 = 3.47e7; calcium entry signal, replicate 2 = 5.03e7; resting calcium signal, replicate 1 = 1.87e7; resting calcium signal, replicate 2 = 2.03e7; call = inactive
Alp13 (Alkaline phosphatase 13): calcium entry signal, replicate 1 = 2.95e7; calcium entry signal, replicate 2 = 2.33e7; resting calcium signal, replicate 1 = 1.63e7; resting calcium signal, replicate 2 = 1.27e7; call = inactive
mei-217 + mei-218: calcium entry signal, replicate 1 = 4.56e7; calcium entry signal, replicate 2 = 2.77e7; resting calcium signal, replicate 1 = 2.34e7; resting calcium signal, replicate 2 = 1.32e7; call = inactive
wdb (widerborst): calcium entry signal, replicate 1 = 1.92e7; calcium entry signal, replicate 2 = 3.52e7; resting calcium signal, replicate 1 = 1.11e7; resting calcium signal, replicate 2 = 1.51e7; call = inactive

In a second layout: results already given
gene knocked down,dsRNA no.,"calcium entry signal, replicate 1","calcium entry signal, replicate 2","resting calcium signal, replicate 1","resting calcium signal, replicate 2",call
Sec6 (Secretory 6),1,4.21e7,4.21e7,2.08e7,1.90e7,inactive
rno (rhinoceros),1,3.76e7,5.01e7,1.86e7,2.39e7,inactive
